Consider one molecule from PMC2646837.

Results are given in words; binding and its absence hold for the method and conditions named. Where a sequence is shown, tags or fusion partners need not be part of it.

The assay has as its target Endo-β-N-acetylglucosaminidase A from Arthrobacter protophormiae (Arthrobacter protophormiae) (UniProt Q9ZB22). The experiment in a line: crystal structure; methylated native Endo-A, space group P1, four molecules in the asymmetric unit, refined at 2.0 Å; crystals from PEG 8000, calcium acetate, glycerol; both purified.

B1: Endo-β-N-acetylglucosaminidase A from Arthrobacter protophormiae (enzyme, UniProt Q9ZB22 25-645)
chain: STYNGPLSSHWFPEELAQWEPDSDPDAPFNRSHVPLEPGRVANRVNANADKDAHLVSLSALNRHTSGVPSQGAPVFYENTFSYWHYTDLMVYWAGSAGEGIIVPPSADVIDASHRNGVPILGNVFFPPTVYGGQLEWLEQMLEQEEDGSFPLADKLLEVADYYGFDGWFINQETEGADEGTAEAMQAFLVYLQEQKPEGMHIMWYDSMIDTGAIAWQNHLTDRNKMYLQNGSTRVADSMFLNFWWRDQRQSNELAQALGRSPYDLYAGVDVEARGTSTPVQWEGLFPEGEKAHTSLGLYRPDWAFQSSETMEAFYEKELQFWVGSTGNPAETDGQSNWPGMAHWFPAKSTATSVPFVTHFNTGSGAQFSAEGKTVSEQEWNNRSLQDVLPTWRWIQHGGDLEATFSWEEAFEGGSSLQWHGSLAEGEHAQIELYQTELPISEGTSLTWTFKSEHGNDLNVGFRLDGEEDFRYVEGEQRESINGWTQWTLPLDAFAGQTITGLAFAAEGNETGLAEFYIGQLAVGADSEKPAAPNVNVRQYDPDPSGIQLVWEKQSNVHHYRVYKETKHGKELIGTSAGDRIYLEGLVEESKQNDVRLHIEALSETFVPSDARMIDIKSGSF
modifications: methylated (the protein of the 2.0 Å refined model; residues not stated)
As to B1, the binding result is reported as “no binding”.
